According to US9586914B2, “Modulators of C3a receptors” (THE UNIVERSITY OF QUEENSLAND, priority 2011, dated 2017):
The name of at least one read-out is uncertain.

Biological target: T1, C3aR (Homo sapiens, UniProt Q16581)
T1 construct: peripheral blood mononuclear cells were isolated from buffy coat (obtained from Australian Red Cross Blood Service, Kelvin Grove); endogenous in cells; host or cells: primary human monocyte-derived macrophages (HMDM) differentiated from CD14+ monocytes of donor buffy coat
T1 sequence (Q16581 1-482): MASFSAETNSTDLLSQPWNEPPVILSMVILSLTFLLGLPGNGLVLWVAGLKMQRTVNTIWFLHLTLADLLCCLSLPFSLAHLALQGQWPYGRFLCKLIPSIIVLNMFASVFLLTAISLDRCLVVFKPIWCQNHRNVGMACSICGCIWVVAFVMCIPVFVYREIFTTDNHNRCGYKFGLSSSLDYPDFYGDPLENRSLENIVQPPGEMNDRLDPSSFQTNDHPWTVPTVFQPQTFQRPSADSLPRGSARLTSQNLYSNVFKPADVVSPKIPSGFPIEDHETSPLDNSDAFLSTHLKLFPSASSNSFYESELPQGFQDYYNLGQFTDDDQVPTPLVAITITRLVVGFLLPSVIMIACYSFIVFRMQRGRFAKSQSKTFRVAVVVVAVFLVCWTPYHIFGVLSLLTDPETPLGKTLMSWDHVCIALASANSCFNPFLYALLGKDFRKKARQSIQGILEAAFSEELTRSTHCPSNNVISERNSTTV
Test: Calcium mobilization assay in HMDM (agonist/antagonist activity)
Format: cell-based
Conditions: Table 11; read-out: Apparent Antagonist Activity EC50 (nM) (symbol)
Experimental: Harvested HMDM cells were washed with 0.9% NaCl solution by centrifugation at 2500 rpm for 5 min, followed by resuspension of the cell pellet with complete media. Cells were seeded at 5×10^4 cells/well in a 96-well black-wall, clear bottom plate (DKSH, Zurich), and left overnight to adhere at 37° C. On the day of the experiment, supernatant was removed and cells were incubated in dye loading buffer (Hank's Balanced Salt Solution (HBSS) with 4 μM Fluo-3, 25 μL pluronic acid, 1% fetal bovine serum (FBS) and 2.5 mM probenecid) for one hour at 37° C. Cells were then washed twice with HBSS and transferred to a Fluorostar spectrofluorimeter (BMG, Durham N.C.) for oxazole compound injection and fluorescence measurements. […]
HMDMs were seeded into black-wall, clear bottom 96-well plates (Corning Incorporated, NY) at 50,000 cells/well and left to incubate at 37° C. with 5% CO2 overnight for cells to adhere. […] To each well was added 50 μL of fresh assay buffer before the plate was loaded into a FLIPR (Fluorescent Imaging Plate Reader) that can inject treatments and measure any calcium release. To generate agonist plots, calcium release was monitored for 300 seconds. To generate antagonist plots, calcium release was recorded for 900 seconds, which at the same time would allow incubation for the antagonists. […]

In the case of `CC(C)C[C@H](NC(=O)OC(C)(C)C)c1nc(C(=O)N[C@@H](CCCNC(=N)N)C(=O)O)c(-c2ccccc2)o1` [Compound 50, Boc-Leucine-5-Phenyl-Oxazole-Arginine], the EC50 is reported as over 100000 nM.
